From patent US20250002503A1, “OXADIAZASPIRO COMPOUNDS FOR USE IN THE TREATMENT OF MOTONEURON DEGENERATION OR IN NEUROPROTECTION” (ESTEVE PHARMACEUTICALS, S.A., priority 2021, published 2025)

Test system: motoneurons (MNs) in spinal cord organotypic cultures
Assay: Spinal cord organotypic cultures (SCOCs) under THA chronic excitotoxicity, SMI-32 positive MN count
Format: cell-based, Sprague-Dawley rats
Settings: THA 100 μM, 28 DIV; 5 μM
Protocol: SCOCs from lumbar sections of 8 day-old Sprague-Dawley rats were prepared as previously described (Mòdol-Caballero et al., 2017). Briefly, the spinal cord was collected and cut in 350 μm thick transverse sections with a Mcllwain Tissue Chopper. Four lumbar sections per sample were transferred onto Millicell-CM nets (0.4 μm, PICM03050, Millipore) in medium [50% (v/v) minimal essential medium (MEM, M5775, Sigma), 2 mM glutamine, 25 mM HEPES, 25% (v/v) Hank's Balanced Salt Solution (HBSS^−/−, 14175, Gibco) supplemented with 25.6 mg/ml glucose and 25% (v/v) heat-inactivated horse serum (26050-088, Gibco), pH=7.2]. Cultures were maintained at 37° C. in a 5% CO2 humidified cabin and let to stabilize. After 7 days in vitro (DIV), DL-threo-b-hydroxyaspartic acid (THA; 100 μM) was added to induce chronic excitotoxicity (Rothstein et al., 1993). The neuroprotective effect of each Sig-1R ligand was assessed by its coaddition to the culture with THA and renewing at each medium change. Compound A (in DMSO 100 mM) and Compound B (in PBS 1 mM) were tested at four concentrations (30, 3, 0.3 and 0.03 μM). […]
Slices were maintained for 28 DIV and then fixed with 4% paraformaldehyde. […] MN survival was assessed by counting all SMI-32 positive neurons in each spinal cord using the Cell Counter plugin of ImageJ software.

## Nc1nc2ccc(OC(F)(F)F)cc2s1 [Riluzole, reference compound]
  preservation of MNs (SMI-32 positive), positive control: preserved MNs at levels of control cultures
